Source: PMC9224296
These are yes or no findings as the source states them, for the method shown. Binding seen in cells or lysates may run through a third protein. These calls come from enrichment with a bait or labelling near it, and not all partners need be listed. Where a sequence is shown, tags or fusion partners need not be part of it.

Protein sequences, listed by entry. Tags and fused reporters are not part of them.
UniProt Q9WUM4: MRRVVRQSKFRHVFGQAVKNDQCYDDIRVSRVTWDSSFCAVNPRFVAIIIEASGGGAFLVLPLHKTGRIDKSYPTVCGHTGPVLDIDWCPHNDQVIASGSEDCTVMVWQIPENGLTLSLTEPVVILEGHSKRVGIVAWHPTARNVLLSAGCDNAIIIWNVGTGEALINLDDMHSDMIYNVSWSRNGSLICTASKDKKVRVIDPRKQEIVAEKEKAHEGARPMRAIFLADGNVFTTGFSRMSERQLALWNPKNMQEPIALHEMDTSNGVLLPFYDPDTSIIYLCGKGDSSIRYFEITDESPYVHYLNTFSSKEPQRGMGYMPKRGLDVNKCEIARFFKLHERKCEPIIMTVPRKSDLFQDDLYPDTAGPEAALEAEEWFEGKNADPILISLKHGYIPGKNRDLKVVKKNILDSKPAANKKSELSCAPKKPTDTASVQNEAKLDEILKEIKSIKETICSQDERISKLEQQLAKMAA
UniProt P21107: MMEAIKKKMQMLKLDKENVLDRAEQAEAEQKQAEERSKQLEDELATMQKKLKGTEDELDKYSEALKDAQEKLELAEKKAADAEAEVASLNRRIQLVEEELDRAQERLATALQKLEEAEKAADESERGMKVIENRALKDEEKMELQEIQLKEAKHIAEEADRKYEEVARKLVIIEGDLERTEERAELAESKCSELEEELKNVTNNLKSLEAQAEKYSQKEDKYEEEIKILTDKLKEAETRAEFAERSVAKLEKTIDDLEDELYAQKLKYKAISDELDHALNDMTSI

Molecular target: T1, GFP-Rab44 (WT) (mouse) (UniProt Q8CB87)
T1 sequence: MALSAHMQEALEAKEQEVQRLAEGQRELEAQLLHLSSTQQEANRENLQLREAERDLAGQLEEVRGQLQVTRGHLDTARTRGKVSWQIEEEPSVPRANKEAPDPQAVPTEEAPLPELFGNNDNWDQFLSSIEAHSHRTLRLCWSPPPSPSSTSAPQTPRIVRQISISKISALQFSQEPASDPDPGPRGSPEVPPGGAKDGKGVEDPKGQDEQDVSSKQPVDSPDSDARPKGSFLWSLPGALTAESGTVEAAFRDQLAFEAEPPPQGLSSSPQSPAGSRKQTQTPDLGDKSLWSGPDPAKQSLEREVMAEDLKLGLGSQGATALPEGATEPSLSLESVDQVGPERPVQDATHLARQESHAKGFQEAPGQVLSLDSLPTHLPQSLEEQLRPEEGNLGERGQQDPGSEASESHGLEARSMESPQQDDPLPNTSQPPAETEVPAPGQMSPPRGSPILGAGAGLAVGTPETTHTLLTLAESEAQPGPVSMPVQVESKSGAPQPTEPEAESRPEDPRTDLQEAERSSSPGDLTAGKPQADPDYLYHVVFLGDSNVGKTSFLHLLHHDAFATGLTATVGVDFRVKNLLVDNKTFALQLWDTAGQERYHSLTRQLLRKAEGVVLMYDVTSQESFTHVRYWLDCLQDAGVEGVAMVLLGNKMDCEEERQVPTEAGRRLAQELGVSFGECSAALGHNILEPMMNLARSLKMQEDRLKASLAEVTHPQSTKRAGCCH
Test: affinity purification with mass spectrometry; GTP-specific pull-down: RAW-D lysate treated with ALP (25 units) on ice 1 h, anti-GFP mAb agarose overnight at 4 °C, five washes with PBS, elution with 5 mM GTP; SDS-PAGE, CBB staining, bands identified by MALDI-TOF-MS (Mascot)

binding | Substance
binds | Coronin1C (from UniProt Q9WUM4 1-474)
binds | Tropomyosin α3 chain (from UniProt P21107 1-285)
